PubChem BioAssay AID602196 – INSERM | 2012
Aim: 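Knock-downs that protect lung cancer cells from cisplatin or sensitise them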. Cell system: human A549 lung cancer cells. Reagent: siRNA pair against human genes. Time to read-out: 48 h transfection before cisplatin; time from cisplatin to read-out not stated. Conditions: cisplatin at a dose killing half of control-siRNA cells; exact dose and duration not given. Measurement: 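Cisplatin cell death as a shift from the 50% death seen with control siRNA; siRNAs toxic or growth-blocking alone scored 0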. Direction: two-siRNA summed score (-2 to +2): higher = both siRNAs protect from cisplatin killing; -2 means both sensitise; mean protection from cisplatin (shift in death): higher = protection from cisplatin killing. Rule for the call: 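siRNAs harmful alone (LDH or WST-1) get 0; others get +1 for less and -1 for more cisplatin killing; genes are active when the two siRNAs give the same sign, summing to ±2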. Calls: active = both siRNAs shift cisplatin killing the same way; inactive = no consistent shift, or siRNA harmful alone.
The deposit covers about 23,000 reagents; shown is an unselected part. 455 of them (2%) were called active. 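Active includes both protection and sensitisation; some change values fall well beyond the stated -50 to +50 range.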 Unmarked entries are inactive. Not all columns of the deposit are shown. Not given: the amount of reagent.

What is on record for PM20D1-AS1?
two-siRNA summed score (-2 to +2): 0; mean protection from cisplatin (shift in death) (%): 1.3

For VRK2, how do the results read?
two-siRNA summed score (-2 to +2): 2 (active); mean protection from cisplatin (shift in death) (%): 11.7

Which result is listed for AGAP12P?
two-siRNA summed score (-2 to +2): 0; mean protection from cisplatin (shift in death) (%): 9.6

For LOC339377, how do the results read?
two-siRNA summed score (-2 to +2): 0; mean protection from cisplatin (shift in death) (%): 2.2

Which result is listed for LHX6?
two-siRNA summed score (-2 to +2): 0; mean protection from cisplatin (shift in death) (%): 7.8

With ABCG4, how do the results read?
two-siRNA summed score (-2 to +2): 0; mean protection from cisplatin (shift in death) (%): 5.6

With LOC400574, what does the deposit list?
two-siRNA summed score (-2 to +2): 0; mean protection from cisplatin (shift in death) (%): 10.3

With ASB6, how do the results read?
two-siRNA summed score (-2 to +2): -1; mean protection from cisplatin (shift in death) (%): -8.4

With OR10A7, what does the deposit list?
two-siRNA summed score (-2 to +2): 0; mean protection from cisplatin (shift in death) (%): 6.2

With FNBP1L, how do the results read?
two-siRNA summed score (-2 to +2): 1; mean protection from cisplatin (shift in death) (%): 5.2

For OR10G8, what does the deposit list?
two-siRNA summed score (-2 to +2): 1; mean protection from cisplatin (shift in death) (%): 11

With MLLT11, what was measured?
two-siRNA summed score (-2 to +2): 0; mean protection from cisplatin (shift in death) (%): 7.9

With IGFBP2, what was measured?
two-siRNA summed score (-2 to +2): 0; mean protection from cisplatin (shift in death) (%): 13.8

What did the screen give for S100A10?
two-siRNA summed score (-2 to +2): 0; mean protection from cisplatin (shift in death) (%): 3.5

How did the screen score PFN1?
two-siRNA summed score (-2 to +2): -1; mean protection from cisplatin (shift in death) (%): -1.4

What is on record for TCEAL7?
two-siRNA summed score (-2 to +2): 0; mean protection from cisplatin (shift in death) (%): 0.3

Records listed so far with an active call:
VRK2: two-siRNA summed score (-2 to +2) = 2 (active); mean protection from cisplatin (shift in death) (%) = 11.7

The results go on.
What did the screen give for THAP6?
two-siRNA summed score (-2 to +2): -1; mean protection from cisplatin (shift in death) (%): -13.8

With ASCL3, what does the deposit list?
two-siRNA summed score (-2 to +2): 0; mean protection from cisplatin (shift in death) (%): 4.6

What did the screen give for LOC440711?
two-siRNA summed score (-2 to +2): 0; mean protection from cisplatin (shift in death) (%): 8.3

What did the screen give for LOC441610?
two-siRNA summed score (-2 to +2): 0; mean protection from cisplatin (shift in death) (%): 25.6

With THRAP3, how do the results read?
two-siRNA summed score (-2 to +2): 0; mean protection from cisplatin (shift in death) (%): 8.8

How did the screen score MAGEB3?
two-siRNA summed score (-2 to +2): 0; mean protection from cisplatin (shift in death) (%): 5.8

What did the screen give for TBC1D21?
two-siRNA summed score (-2 to +2): 0; mean protection from cisplatin (shift in death) (%): 1.1

What did the screen give for RAB11A?
two-siRNA summed score (-2 to +2): 0; mean protection from cisplatin (shift in death) (%): 8.4

What is on record for KRT28?
two-siRNA summed score (-2 to +2): -1; mean protection from cisplatin (shift in death) (%): 2.2

Which result is listed for SYCP3?
two-siRNA summed score (-2 to +2): 0; mean protection from cisplatin (shift in death) (%): -0.4

What did the screen give for DUSP29?
two-siRNA summed score (-2 to +2): 0; mean protection from cisplatin (shift in death) (%): 11.4

How did the screen score SYNM?
two-siRNA summed score (-2 to +2): 1; mean protection from cisplatin (shift in death) (%): 3.6

Which result is listed for ZSCAN32?
two-siRNA summed score (-2 to +2): 0; mean protection from cisplatin (shift in death) (%): -4.7

For SLC20A1, what does the deposit list?
two-siRNA summed score (-2 to +2): 1; mean protection from cisplatin (shift in death) (%): 8.6

What is on record for ITGB6?
two-siRNA summed score (-2 to +2): -1; mean protection from cisplatin (shift in death) (%): -29.3

Which result is listed for TUBB8?
two-siRNA summed score (-2 to +2): 0; mean protection from cisplatin (shift in death) (%): 9.4

For FBF1, how do the results read?
two-siRNA summed score (-2 to +2): 0; mean protection from cisplatin (shift in death) (%): -3.1

For LOC342346, what does the deposit list?
two-siRNA summed score (-2 to +2): 0; mean protection from cisplatin (shift in death) (%): -3.9

For LEMD1, how do the results read?
two-siRNA summed score (-2 to +2): 0; mean protection from cisplatin (shift in death) (%): -8.6

For MYL5, what was measured?
two-siRNA summed score (-2 to +2): 0; mean protection from cisplatin (shift in death) (%): 7.5

With TOP1P1, what does the deposit list?
two-siRNA summed score (-2 to +2): 0; mean protection from cisplatin (shift in death) (%): 2

With LDAF1, what does the deposit list?
two-siRNA summed score (-2 to +2): 0; mean protection from cisplatin (shift in death) (%): -4.7

For KIAA0319, what was measured?
two-siRNA summed score (-2 to +2): 0; mean protection from cisplatin (shift in death) (%): 8.9

For SYNPO2L, how do the results read?
two-siRNA summed score (-2 to +2): 0; mean protection from cisplatin (shift in death) (%): 15.2
